Laboratory results from the supplement of paper PMC8960247.
Where a name gives a salt, the structure may show the parent alone. The data scatter; read single values as rough.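 The cells are immortalized human renal angiomyolipoma cells carrying an empty vector, so TSC2 stays lost. Viability was read by a luminescent ATP assay and normalized to vehicle-treated wells on each plate, in low-serum medium where TSC2-rescued cells do not grow.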

Test system: 621-102 (TSC2-deficient)
Assay: relative viability vs DMSO (fraction); higher = less cytotoxic
Conditions: serum: 0.1% FBS, 72 h

SMILES	relative viability (0.0128 nM)	relative viability (0.064 nM)	relative viability (0.32 nM)	relative viability (1.6 nM)	relative viability (8 nM)	relative viability (40 nM)	relative viability (200 nM)	relative viability (1000 nM)	relative viability (5000 nM)
CC[C@@H]1C(=O)N(C)c2cnc(Nc3ccc(C(=O)NC4CCN(C)CC4)cc3OC)nc2N1C1CCCC1 [BI 2536]	0.703	0.593	0.718	0.536	0.0261	0.00854	0.0144	0.0339	0.00858
C[C@]1(c2nc3c(C(N)=O)cccc3[nH]2)CCCN1 [ABT-888]	0.769	0.758	0.742	0.651	0.633	0.681	0.409	0.486	0.521
CC[N+](CC)(CC)CCOc1cccc(OCC[N+](CC)(CC)CC)c1OCC[N+](CC)(CC)CC [Gallamine Triethiodide]	0.695	0.751	0.705	0.709	0.321	0.657	0.767	0.778	0.785
COc1nc(C)cnc1NS(=O)(=O)c1cccnc1-c1ccc(-c2nnco2)cc1 [Zibotentan (ZD4054)]	0.902	0.884	0.92	0.982	0.918	0.77	0.767	0.811	0.559
C[C@H](NC(=O)Cc1cc(F)cc(F)c1)C(=O)N[C@@H]1C(=O)N(C)c2ccccc2-c2ccccc21	0.562	0.682	0.887	0.726	0.772	0.587	0.567	0.524	0.379
CC(C)C[C@H](NC(=O)CNC(=O)c1cc(Cl)ccc1Cl)B1OC(=O)C(CC(=O)O)(CC(=O)O)O1 [MLN9708]	0.869	0.843	0.812	0.728	0.802	0.302	0.0119	0.0127	0.0131
CC(/C=C/C(=O)NO)=C\[C@@H](C)C(=O)c1ccc(N(C)C)cc1 [Trichostatin A]	0.767	0.805	0.797	0.752	0.654	0.632	0.582	0.491	0.33
O=C(O[C@H]1C[C@H]2CC[C@@H](C1)[N+]21CCCC1)C(O)(c1ccccc1)c1ccccc1 [Trospium chloride]	0.647	0.723	0.852	0.917	0.72	0.888	0.857	0.824	0.443
CO[C@@H]1[C@@H](OC(N)=O)[C@@H](O)[C@H](Oc2ccc3c(O)c(NC(=O)c4ccc(O)c(CC=C(C)C)c4)c(=O)oc3c2C)OC1(C)C [Novobiocin Sodium]	0.99	1.05	0.947	0.958	1	0.883	0.945	0.193	0.162
CO[C@H]1C[C@@H]2CC[C@@H](C)[C@@](O)(O2)C(=O)C(=O)N2CCCC[C@H]2C(=O)O[C@H]([C@H](C)C[C@@H]2CC[C@@H](OCCO)[C@H](OC)C2)CC(=O)[C@H](C)/C=C(\C)[C@@H](O)[C@@H](OC)C(=O)[C@H](C)C[C@H](C)/C=C/C=C/C=C/1C [Everolimus (RAD001)]	1.03	0.999	0.916	0.81	0.514	0.319	0.284	0.236	0.153
NCCc1ccc(O)c(O)c1 [Dopamine HCl]	0.772	0.708	0.687	0.758	0.787	0.774	0.748	0.831	0.67
C[C@@](Cc1ccc(O)c(O)c1)(NN)C(=O)O [Carbidopa]	0.628	0.73	0.736	0.734	0.683	0.717	0.633	0.206	0.583
COc1ccc(-c2cc3c(C)nc(N)nc3n([C@H]3CC[C@H](OCCO)CC3)c2=O)cn1	0.211	0.891	2.08	1.96	1.88	0.338	1.62	0.124	0.122
Cc1cn([C@H]2C=C[C@@H](CO)O2)c(=O)[nH]c1=O [Stavudine]	1.41	1.36	1.59	1.52	0.907	0.93	1.19	1.6	1.25
CN1CCCC(n2nc(Cc3ccc(Cl)cc3)c3ccccc3c2=O)CC1 (configuration not stated) [Azelastine HCl]	0.641	0.145	0.788	0.875	0.868	0.771	0.764	0.747	0.633
CC(C)[C@H](C(=O)Nc1ccc(C(=O)NO)cc1)c1ccccc1 [AR-42]	1.07	1.02	0.993	0.199	0.9	0.216	0.275	0.105	0.0646
O=C(NC[C@H]1CN(c2ccc(N3CCOCC3=O)cc2)C(=O)O1)c1ccc(Cl)s1 [Rivaroxaban]	0.853	0.83	0.771	0.778	0.727	0.763	0.794	0.758	0.65

Two entries from above, in markdown:

| SMILES | relative viability (0.0128 nM) | relative viability (0.064 nM) | relative viability (0.32 nM) | relative viability (1.6 nM) | relative viability (8 nM) | relative viability (40 nM) | relative viability (200 nM) | relative viability (1000 nM) | relative viability (5000 nM) |
| --- | --- | --- | --- | --- | --- | --- | --- | --- | --- |
| CO[C@H]1C[C@@H]2CC[C@@H](C)[C@@](O)(O2)C(=O)C(=O)N2CCCC[C@H]2C(=O)O[C@H]([C@H](C)C[C@@H]2CC[C@@H](OCCO)[C@H](OC)C2)CC(=O)[C@H](C)/C=C(\C)[C@@H](O)[C@@H](OC)C(=O)[C@H](C)C[C@H](C)/C=C/C=C/C=C/1C [Everolimus (RAD001)] | 1.03 | 0.999 | 0.916 | 0.81 | 0.514 | 0.319 | 0.284 | 0.236 | 0.153 |
| NCCc1ccc(O)c(O)c1 [Dopamine HCl] | 0.772 | 0.708 | 0.687 | 0.758 | 0.787 | 0.774 | 0.748 | 0.831 | 0.67 |

Further compounds:

SMILES	relative viability (0.0128 nM)	relative viability (0.064 nM)	relative viability (0.32 nM)	relative viability (1.6 nM)	relative viability (8 nM)	relative viability (40 nM)	relative viability (200 nM)	relative viability (1000 nM)	relative viability (5000 nM)
COc1ccc([C@H]2CNC(=O)C2)cc1OC1CCCC1 [S-(+)-Rolipram]	0.765	0.917	0.866	0.879	0.84	0.783	0.735	0.749	0.752
O=C1NC(=O)/C(=C/c2ccc3nccc(-c4ccncc4)c3c2)S1	0.846	0.855	0.878	0.917	0.804	0.859	0.842	0.775	0.334
Cc1ccc(-n2nc(C(C)(C)C)cc2NC(=O)Nc2ccc(OCCN3CCOCC3)c3ccccc23)cc1 [BIRB 796 (Doramapimod)]	1.03	0.89	0.999	1.04	0.945	0.972	0.951	1.04	1.08
Cc1ccc(NC(=O)c2ccc(CN3CCN(C)CC3)cc2)cc1Nc1nccc(-c2cccnc2)n1 [Imatinib Mesylate (STI571)]	0.865	0.819	0.955	0.428	0.941	0.27	0.743	0.617	0.0615
CCCCN1CCCCC1C(=O)Nc1c(C)cccc1C (configuration not stated) [Bupivacaine HCl]	0.779	0.866	0.908	0.88	0.919	0.74	0.655	0.658	0.327
Cc1ccccc1-n1c(Cn2cnc3c(N)ncnc32)nc2cccc(C)c2c1=O	0.79	0.81	0.791	0.838	0.825	0.837	0.794	0.665	0.602
CN1[C@@H]2CC[C@H]1C[C@@H](OC(=O)c1c[nH]c3ccccc13)C2 [Tropisetron]	0.768	0.714	0.742	0.729	0.655	0.663	0.674	0.798	0.565
C[C@@H](Oc1cc(-c2cnn(C3CCNCC3)c2)cnc1N)c1c(Cl)ccc(F)c1Cl	0.83	0.894	0.83	0.859	0.474	0.749	0.766	0.333	0.0346
Nc1cccc2c1C(=O)N(C1CCC(=O)NC1=O)C2=O (configuration not stated) [Pomalidomide]	0.786	0.835	0.876	0.657	0.23	0.191	0.198	0.157	0.00966
C[C@H](Cn1cnc2c(N)ncnc21)OCP(=O)(O)O [Tenofovir]	0.724	0.566	0.61	0.586	0.507	0.528	0.536	0.504	0.546
CC(C)(C#N)c1cc(Cn2cncn2)cc(C(C)(C)C#N)c1 [Anastrozole]	0.854	0.901	0.879	0.848	0.79	0.763	0.867	0.727	0.758
COc1ccc2c3n(c(=NC(=O)c4cccnc4)nc2c1OC)CCN3 [PIK-90]	0.68	0.764	0.908	0.952	0.784	0.62	0.711	0.724	0.561
COc1cc2c(cc1OC)C(=O)C(CC1CCN(Cc3ccccc3)CC1)C2 (configuration not stated) [Donepezil HCl]	0.722	0.78	0.747	0.721	0.702	0.738	0.78	0.767	0.667
NC(=O)c1cccc2[nH]c(-c3ccc(C4CCCN4)cc3F)nc12 (configuration not stated)	0.856	0.874	0.868	0.707	0.74	0.745	0.758	0.721	0.598
O=c1n(CCCN2CCN(c3cccc(Cl)c3)CC2)nc2ccccn12 [Trazodone HCl]	1.01	1.05	0.991	0.907	0.581	0.644	0.504	0.485	0.637
OC(CNCC(O)C1CCc2cc(F)ccc2O1)C1CCc2cc(F)ccc2O1 (configuration not stated) [Nebivolol]	0.747	0.806	0.735	0.725	0.716	0.704	0.672	0.649	0.138
